Test results: patent publication US20210386709A1, “COMPOSITIONS AND METHODS FOR SUPPRESSING MSUT2” (United States Government As Represented By The Department …, priority 2020, published 2021)
For some assays here: For at least one compound, name, drawing or mass did not settle the structure. Some of these results come from one statement about several compounds together.

Experiments:
[1] = test system: mice expressing three AD-associated mutations (Tau P301L, APP KM670/671NL, and PSEN1 M146V); details: treatment via drinking water; cited from earlier work
HEK-293 cells = assay: Cell viability, Promega Cell Titer Glo; details: all tested doses, normalized to 2% DMSO vehicle

Row | Structure (SMILES) | oxidative stress, levels of amyloid-β, and hyper phosphorylated tau [1] | cell viability (HEK-293 cells)
1 | O=c1c2ccccc2[se]n1-c1ccccc1 [Ebselen] | reduced | 
2 | CC(C)/N=c1\cc2n(-c3ccc(Cl)cc3)c3ccccc3nc-2cc1Nc1ccc(Cl)cc1 [Clofazimine] |  | above 90%
